Results as given in the supplement of paper PMC11732987, “Enantioselective OTUD7B fragment discovery through chemoproteomics screening and high-throughput optimisation” (Communications Chemistry, 2025).
Some of the results follow. The data scatter; read single values as rough.

The chains behind the UniProt entries cited, without tags or fusion partners. Where a name states a change or a piece, a line headed by the entry shows the natural chain unless it says otherwise.
UniProt P51798: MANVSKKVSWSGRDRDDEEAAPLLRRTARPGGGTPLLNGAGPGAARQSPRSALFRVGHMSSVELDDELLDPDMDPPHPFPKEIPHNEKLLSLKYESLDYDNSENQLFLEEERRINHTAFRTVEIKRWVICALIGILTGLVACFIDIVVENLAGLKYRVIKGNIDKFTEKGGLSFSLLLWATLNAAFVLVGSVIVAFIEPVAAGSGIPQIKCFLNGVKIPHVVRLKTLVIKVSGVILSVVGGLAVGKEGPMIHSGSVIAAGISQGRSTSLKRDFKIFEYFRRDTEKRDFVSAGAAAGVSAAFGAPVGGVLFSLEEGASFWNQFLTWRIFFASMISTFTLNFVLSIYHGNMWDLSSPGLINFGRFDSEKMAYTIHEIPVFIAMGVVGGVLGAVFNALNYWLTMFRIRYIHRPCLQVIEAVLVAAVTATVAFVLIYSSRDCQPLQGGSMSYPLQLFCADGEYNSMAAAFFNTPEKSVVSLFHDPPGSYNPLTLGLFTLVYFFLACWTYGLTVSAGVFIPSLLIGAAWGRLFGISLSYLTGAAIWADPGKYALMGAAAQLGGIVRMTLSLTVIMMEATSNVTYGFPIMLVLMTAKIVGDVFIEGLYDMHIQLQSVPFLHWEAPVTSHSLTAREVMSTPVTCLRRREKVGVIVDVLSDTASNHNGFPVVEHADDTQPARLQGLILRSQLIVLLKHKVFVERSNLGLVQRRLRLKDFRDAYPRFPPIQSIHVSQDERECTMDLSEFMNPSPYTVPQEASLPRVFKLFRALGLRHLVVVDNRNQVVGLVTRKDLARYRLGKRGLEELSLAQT

Biological target: T1, CLCN7 C733 (UniProt P51798)
T1 sequence (whole entry): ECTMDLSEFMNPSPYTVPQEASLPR
Test: log2 mean competition ratio of IA-DTB cysteine labelling (DMSO/compound) (log2 ratio); higher = stronger cysteine engagement by compound
Conditions: 50 µM; treatment time: 4 h; cell line lysate: HEK293T
Method: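 IA-DTB competitive cysteine chemoproteomics in HEK293T RIPA lysate. Lysates were treated with compound 29 or 30 at 50 or 200 µM for 4 h, then IA-DTB (500 µM, 1 h), trypsin-digested, NeutrAvidin-enriched and analysed by diaPASEF. Competition ratio = intensity DMSO / intensity compound (n=4 treated, n=64 DMSO); binding: mean log2 CR ≥ 1 and p ≤ 0.05 plus QC filters. Target is the cysteine site.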

SMILES | log2 mean competition ratio
O=C(CCl)N[C@H]1CCCc2ccccc21 | 0.104
O=C(CCl)N[C@@H]1CCCc2ccccc21 | -0.241

Same assay, conditions: 200 µM; treatment time: 4 h; cell line lysate: HEK293T

SMILES | log2 mean competition ratio
O=C(CCl)N[C@H]1CCCc2ccccc21 | -0.0755
O=C(CCl)N[C@@H]1CCCc2ccccc21 | 0.203
